Test results as given in paper PMC5613952.

By UniProt entry, the sequences of proteins in these tests, tags left out.
UniProt P45973: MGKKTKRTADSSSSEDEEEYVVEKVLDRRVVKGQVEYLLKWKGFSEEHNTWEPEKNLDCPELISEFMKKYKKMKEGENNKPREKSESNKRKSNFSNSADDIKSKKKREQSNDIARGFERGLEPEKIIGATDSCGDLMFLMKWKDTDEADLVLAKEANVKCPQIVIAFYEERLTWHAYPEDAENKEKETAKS
UniProt Q14839: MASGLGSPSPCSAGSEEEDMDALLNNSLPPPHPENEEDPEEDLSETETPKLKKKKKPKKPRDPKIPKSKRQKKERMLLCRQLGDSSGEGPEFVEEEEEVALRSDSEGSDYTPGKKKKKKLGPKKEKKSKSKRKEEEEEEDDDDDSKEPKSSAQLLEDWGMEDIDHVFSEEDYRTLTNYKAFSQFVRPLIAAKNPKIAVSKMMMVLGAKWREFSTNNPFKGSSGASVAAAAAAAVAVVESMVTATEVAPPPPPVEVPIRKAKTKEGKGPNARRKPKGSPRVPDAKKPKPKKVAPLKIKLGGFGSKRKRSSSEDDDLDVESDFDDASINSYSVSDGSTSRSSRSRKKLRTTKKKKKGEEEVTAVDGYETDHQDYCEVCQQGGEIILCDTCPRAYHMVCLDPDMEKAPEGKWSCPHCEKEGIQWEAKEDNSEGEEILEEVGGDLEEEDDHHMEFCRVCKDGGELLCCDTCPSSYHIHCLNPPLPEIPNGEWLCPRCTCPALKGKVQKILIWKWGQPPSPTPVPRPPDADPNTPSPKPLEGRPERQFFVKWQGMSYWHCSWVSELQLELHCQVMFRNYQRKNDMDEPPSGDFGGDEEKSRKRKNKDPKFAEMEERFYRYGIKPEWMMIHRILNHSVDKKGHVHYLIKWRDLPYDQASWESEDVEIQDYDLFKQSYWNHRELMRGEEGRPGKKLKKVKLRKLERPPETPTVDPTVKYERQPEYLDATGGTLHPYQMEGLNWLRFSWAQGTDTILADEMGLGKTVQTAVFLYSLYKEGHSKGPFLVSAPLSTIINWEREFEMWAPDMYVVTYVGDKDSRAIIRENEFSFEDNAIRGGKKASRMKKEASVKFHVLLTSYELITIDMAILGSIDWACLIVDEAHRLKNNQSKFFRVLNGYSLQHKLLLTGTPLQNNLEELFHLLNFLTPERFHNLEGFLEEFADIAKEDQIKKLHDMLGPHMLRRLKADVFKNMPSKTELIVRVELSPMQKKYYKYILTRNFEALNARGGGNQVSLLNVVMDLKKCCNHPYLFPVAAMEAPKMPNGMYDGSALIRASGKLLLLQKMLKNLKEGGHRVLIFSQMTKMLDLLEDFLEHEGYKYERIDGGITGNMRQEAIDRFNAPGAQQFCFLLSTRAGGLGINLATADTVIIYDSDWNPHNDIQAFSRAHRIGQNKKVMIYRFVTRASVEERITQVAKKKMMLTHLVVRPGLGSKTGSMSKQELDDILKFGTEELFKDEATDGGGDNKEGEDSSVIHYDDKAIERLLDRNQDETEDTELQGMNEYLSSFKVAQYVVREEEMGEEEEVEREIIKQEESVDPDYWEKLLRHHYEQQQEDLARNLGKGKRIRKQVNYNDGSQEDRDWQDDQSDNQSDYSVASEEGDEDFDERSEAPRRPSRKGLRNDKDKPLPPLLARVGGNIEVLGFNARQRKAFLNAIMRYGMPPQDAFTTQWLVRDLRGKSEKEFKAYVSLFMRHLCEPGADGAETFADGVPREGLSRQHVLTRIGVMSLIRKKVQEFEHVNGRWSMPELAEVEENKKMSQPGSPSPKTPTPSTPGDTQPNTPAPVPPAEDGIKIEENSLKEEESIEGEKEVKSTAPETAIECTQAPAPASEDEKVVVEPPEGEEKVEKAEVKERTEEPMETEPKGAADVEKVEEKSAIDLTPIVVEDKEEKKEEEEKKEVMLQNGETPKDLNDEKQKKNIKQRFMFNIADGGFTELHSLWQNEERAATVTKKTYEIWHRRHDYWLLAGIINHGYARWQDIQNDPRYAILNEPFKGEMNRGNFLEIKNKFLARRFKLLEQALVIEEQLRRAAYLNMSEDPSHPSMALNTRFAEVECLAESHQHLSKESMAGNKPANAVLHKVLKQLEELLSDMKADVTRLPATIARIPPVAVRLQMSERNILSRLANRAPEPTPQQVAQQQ
UniProt P46937: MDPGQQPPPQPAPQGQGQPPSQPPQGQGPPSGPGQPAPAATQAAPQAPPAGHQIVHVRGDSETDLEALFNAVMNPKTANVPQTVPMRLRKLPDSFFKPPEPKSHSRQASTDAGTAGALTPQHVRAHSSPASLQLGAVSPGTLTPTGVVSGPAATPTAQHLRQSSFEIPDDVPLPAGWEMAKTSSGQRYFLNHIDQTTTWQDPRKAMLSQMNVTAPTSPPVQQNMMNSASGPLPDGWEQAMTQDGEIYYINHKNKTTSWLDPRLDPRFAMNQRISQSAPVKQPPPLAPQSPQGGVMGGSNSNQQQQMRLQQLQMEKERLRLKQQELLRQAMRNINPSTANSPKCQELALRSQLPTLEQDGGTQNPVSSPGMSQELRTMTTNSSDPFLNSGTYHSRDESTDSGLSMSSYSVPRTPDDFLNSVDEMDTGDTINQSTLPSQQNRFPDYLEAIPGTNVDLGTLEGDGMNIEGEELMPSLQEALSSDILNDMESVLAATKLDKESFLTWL
UniProt O60264: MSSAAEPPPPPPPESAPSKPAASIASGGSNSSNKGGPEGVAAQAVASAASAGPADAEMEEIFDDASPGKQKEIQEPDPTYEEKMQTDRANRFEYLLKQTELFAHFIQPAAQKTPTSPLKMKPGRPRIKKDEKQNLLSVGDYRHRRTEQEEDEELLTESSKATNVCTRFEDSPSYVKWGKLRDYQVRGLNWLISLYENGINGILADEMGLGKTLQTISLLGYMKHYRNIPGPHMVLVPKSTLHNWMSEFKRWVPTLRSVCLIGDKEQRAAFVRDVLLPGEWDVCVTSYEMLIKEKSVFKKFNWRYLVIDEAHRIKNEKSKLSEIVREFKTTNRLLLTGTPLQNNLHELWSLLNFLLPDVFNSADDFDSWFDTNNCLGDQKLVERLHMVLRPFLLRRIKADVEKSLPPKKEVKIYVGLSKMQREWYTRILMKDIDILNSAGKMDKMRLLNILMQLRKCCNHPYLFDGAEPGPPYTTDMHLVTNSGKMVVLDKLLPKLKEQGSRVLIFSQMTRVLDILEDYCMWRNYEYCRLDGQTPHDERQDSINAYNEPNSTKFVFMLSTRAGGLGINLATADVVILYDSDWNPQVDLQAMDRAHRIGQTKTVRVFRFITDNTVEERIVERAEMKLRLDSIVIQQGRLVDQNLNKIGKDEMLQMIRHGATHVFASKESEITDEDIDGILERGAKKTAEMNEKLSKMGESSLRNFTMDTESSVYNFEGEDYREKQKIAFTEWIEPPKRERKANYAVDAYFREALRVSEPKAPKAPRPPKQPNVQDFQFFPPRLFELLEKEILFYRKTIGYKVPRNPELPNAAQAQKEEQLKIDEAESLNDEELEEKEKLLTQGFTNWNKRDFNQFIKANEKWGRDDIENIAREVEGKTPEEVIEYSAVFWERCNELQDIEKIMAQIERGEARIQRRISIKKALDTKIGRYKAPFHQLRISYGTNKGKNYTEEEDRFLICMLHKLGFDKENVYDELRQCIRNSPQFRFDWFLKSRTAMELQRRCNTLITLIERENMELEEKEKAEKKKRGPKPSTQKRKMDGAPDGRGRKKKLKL

Biological target: T1, MTA3 with V5 tag (MTA3V5), metastasis-associated protein 3 (UniProt Q9BTC8)
T1 sequence: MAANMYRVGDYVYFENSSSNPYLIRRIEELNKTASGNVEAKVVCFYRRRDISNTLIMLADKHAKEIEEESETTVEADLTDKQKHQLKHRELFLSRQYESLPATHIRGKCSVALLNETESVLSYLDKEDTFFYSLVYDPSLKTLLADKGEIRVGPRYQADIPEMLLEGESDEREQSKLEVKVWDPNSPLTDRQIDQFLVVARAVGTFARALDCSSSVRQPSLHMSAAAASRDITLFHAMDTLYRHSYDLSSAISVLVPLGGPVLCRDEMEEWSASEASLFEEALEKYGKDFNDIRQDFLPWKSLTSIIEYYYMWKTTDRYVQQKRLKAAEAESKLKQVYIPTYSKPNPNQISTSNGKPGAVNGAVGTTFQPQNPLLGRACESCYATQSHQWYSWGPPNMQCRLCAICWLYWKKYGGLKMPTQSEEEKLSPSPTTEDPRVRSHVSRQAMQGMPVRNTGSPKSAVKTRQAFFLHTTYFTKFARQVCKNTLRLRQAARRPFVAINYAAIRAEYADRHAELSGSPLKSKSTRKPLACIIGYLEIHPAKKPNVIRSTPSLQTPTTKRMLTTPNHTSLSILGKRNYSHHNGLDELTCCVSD
Assay: affinity purification with mass spectrometry; 25 mg whole protein from HTR8/SVneo cells overexpressing MTA3V5 (2 biological samples), 10 ug MTA3 antibody or non-specific IgG, magnetic beads, on-bead trypsin digestion, LC-MS/MS (Q-Exactive), Mascot/Scaffold at 1% FDR

CBX5 (from UniProt P45973 1-191) was tested, and the binding was “binds”.
In the case of CHD4 (from UniProt Q14839 1-1912), the binding is reported as “binds”.
With YAP1 (from UniProt P46937 1-504) the binding was “binds”.
SMARCA5 (from UniProt O60264 1-1052) was tested, and the binding was “binds”.

No constants are given. Whether binding was seen depends on the method and setting. In cells and extracts the contact can be indirect. A yes stands for co-enrichment or nearness to the bait. Other partners may have been found. Sequences can lack the tags named with a protein.
